Laboratory results reported in paper PMC12209456, “Serine/threonine/tyrosine kinase 1 drives pancreatic carcinogenesis via GSK3β sequestration-mediated Wnt/β-catenin pathway hyperactivation” (Signal Transduction and Targeted Therapy, 2025).

By UniProt entry, the sequences of proteins in these tests, tags left out.
UniProt Q96CW1: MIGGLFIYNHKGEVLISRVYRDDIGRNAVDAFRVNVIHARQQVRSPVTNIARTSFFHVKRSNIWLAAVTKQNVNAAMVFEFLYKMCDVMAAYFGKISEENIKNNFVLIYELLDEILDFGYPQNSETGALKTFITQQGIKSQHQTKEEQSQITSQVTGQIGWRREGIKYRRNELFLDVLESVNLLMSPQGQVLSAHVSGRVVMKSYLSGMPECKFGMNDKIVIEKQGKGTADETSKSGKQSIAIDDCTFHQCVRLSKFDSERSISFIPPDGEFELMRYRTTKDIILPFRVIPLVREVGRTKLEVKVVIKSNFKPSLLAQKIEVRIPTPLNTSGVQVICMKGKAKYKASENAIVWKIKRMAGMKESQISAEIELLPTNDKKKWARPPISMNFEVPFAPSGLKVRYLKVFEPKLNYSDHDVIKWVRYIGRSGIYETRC

How the values were obtained:
Test in all cases: co-IP; Flag-tagged AP1/2 μ subunits with HA-tagged STYK1 wild type or SS1, SS2, SS3 mutants
[1] = target: HA-tagged STYK1 SS2 mutant (L203/L204 mutated to alanine) (UniProt Q6J9G0)
[2] = target: HA-tagged STYK1 SS3 mutant (L199/L220 mutated to alanine) (UniProt Q6J9G0)
[3] = target: T1, HA-tagged wild-type STYK1 (UniProt Q6J9G0)
T1 sequence: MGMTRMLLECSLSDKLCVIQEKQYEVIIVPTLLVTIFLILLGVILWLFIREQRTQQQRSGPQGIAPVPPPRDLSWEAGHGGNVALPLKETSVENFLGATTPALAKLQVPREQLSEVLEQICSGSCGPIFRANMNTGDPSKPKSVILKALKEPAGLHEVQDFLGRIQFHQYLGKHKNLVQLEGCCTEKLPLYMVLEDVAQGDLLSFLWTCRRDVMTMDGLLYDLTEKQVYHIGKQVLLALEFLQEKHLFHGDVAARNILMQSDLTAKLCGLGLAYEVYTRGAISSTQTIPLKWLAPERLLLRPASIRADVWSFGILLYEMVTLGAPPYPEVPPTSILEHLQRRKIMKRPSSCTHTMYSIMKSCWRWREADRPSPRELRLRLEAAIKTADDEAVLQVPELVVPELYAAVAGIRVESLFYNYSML

[4] = target: T2, HA-tagged STYK1 SS1 mutant (Y191/L194 mutated to alanine) (UniProt Q6J9G0)
T2 sequence: T1 sequence with Y191A, L194A

Row | binding [1] | binding [2] | binding [3] | binding [4] | Substance
1 | no binding | binds | – | – | Flag-tagged AP2 μ subunit (from UniProt Q96CW1 1-435)
2 | – | – | binds | no binding | Flag-tagged AP1 μ subunit

Where a chain is given by its changes, count along the chain named. These are yes or no findings as the source states them, for the method shown. In cells and extracts the contact can be indirect. For some of these results: Binding can be weak; no strength is given. For some of these results: Where a sequence is shown, tags or fusion partners need not be part of it.
